Drawing on paper PMC7819943, “Rice protein-binding microarrays: a tool to detect cis-acting elements near promoter regions in rice”, this text covers binding signal for 42 sequences.

The other results are listed elsewhere or left out.

The test concerns the target T1, OsSMF1 (Oryza sativa, UniProt Q6ZLB0 1-436).
T1 sequence: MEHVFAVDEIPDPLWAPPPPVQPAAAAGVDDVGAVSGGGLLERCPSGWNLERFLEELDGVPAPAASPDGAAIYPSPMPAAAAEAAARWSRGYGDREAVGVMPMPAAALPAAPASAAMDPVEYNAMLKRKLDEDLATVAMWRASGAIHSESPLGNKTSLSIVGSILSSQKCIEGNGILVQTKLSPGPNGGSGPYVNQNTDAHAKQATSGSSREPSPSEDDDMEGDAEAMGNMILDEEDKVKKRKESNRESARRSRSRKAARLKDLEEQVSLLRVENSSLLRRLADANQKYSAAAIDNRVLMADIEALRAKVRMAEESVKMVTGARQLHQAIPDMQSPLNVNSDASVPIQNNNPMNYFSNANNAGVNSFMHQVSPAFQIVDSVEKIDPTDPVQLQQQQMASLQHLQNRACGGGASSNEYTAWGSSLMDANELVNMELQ
Description: protein-binding microarray (RPBM); PBS, 2% BSA, 51.3 ng/ul salmon testes DNA, 50 uM zinc acetate, 200 nM TF, 25 C, 1 h; high values mean tight binding. Particulars: protein: recombinant; tags: N-terminal polyhistidine and DsRed monomer fusion (pET32a); chain copies: 2; label: CyDye5-dUTP incorporated in the synthesized complementary strand; 3' TTTTT single-stranded linker to array surface; dsDNA, one strand shown. The method, boiled down: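 Transcription factors, each fused N-terminally to a polyhistidine tag and DsRed, were expressed in E. coli BL21-CodonPlus and purified on Ni–NTA. A custom Agilent array was made double-stranded by primer extension with Cy5-dUTP and blocked with 2% BSA. It was incubated with 200 nM protein in PBS, 2% BSA, salmon testes DNA and 50 µM zinc acetate at 25 °C for 1 h, then washed. The binding signal is per-feature fluorescence intensity (arbitrary units) read on an Axon 4000B scanner.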
Take “GGGTTCACGGCCGCCACGTTGCCCCGCGTCACCGTAGGGCCGGAGTCACCTAGTGCAG”: the binding signal is 10600 fluorescence intensity (a.u.).

Consider “GTTCGAGGCAGCTAAGCCTACGTGGCAGATCCATAGGCCCCGGAGTCACCTAGTGCAG”, for which the binding signal is 16100 fluorescence intensity (a.u.).

Regarding “GAGAACACAATTTGTTGGAACAGTATCAGATTAGTTAGCACGGAGTCACCTAGTGCAG”, the binding signal is 33400 fluorescence intensity (a.u.).

As for “GCGCGTCGCGGCCATAGAAGGGATTCGGGGAGACGTGGCCCGGAGTCACCTAGTGCAG”, the binding signal was 3480 fluorescence intensity (a.u.).

With “CTCAGTAGTAGCAGTGGTTGACGTGTAGTTACTATAGACGCGGAGTCACCTAGTGCAG”, the binding signal was 6020 fluorescence intensity (a.u.).

Regarding “CTCTTCCTGTGATGGCATGACGCCATGCGGTCGCAGCTAGCGGAGTCACCTAGTGCAG”, the binding signal is 4540 fluorescence intensity (a.u.).

In the case of “CGAGGCCTTGCCCGGGAACGGCGAGCATGGACGTCATCCGCGGAGTCACCTAGTGCAG”, the binding signal was 3820 fluorescence intensity (a.u.).

In the case of “GCCACCGCCACCTCATCTTCTCTCCCACCACCGCTCCACACGGAGTCACCTAGTGCAG”, the binding signal is 5070 fluorescence intensity (a.u.).

Turning to “AGCTTCCATCACACTAACACTTGAATTAACACGGAGTAGTCGGAGTCACCTAGTGCAG”, the binding signal is 6300 fluorescence intensity (a.u.).

In the case of “AGGAGTGCATACACCGCGTCCACGCCCACATTCACACGCCCGGAGTCACCTAGTGCAG”, the binding signal is 28600 fluorescence intensity (a.u.).

Turning to “TAGGCATGGGGCGGCGGCGCGACGCCGGCCGTCGTGAGCTCGGAGTCACCTAGTGCAG”, the binding signal was 19100 fluorescence intensity (a.u.).

“TTGGTTATCTTTACATTACCAAATAATGTCATAGCGTTAGCGGAGTCACCTAGTGCAG”: the binding signal is 8160 fluorescence intensity (a.u.).

Take “CTCGCCGGAGGTGGGCCCCACGTGACAGCCTCACACGCGGCGGAGTCACCTAGTGCAG”: the binding signal is 3340 fluorescence intensity (a.u.).

As for “GGTAACGAGGACGGCTGGGATTGCGCCACGTGGCAGCCTTCGGAGTCACCTAGTGCAG”, the binding signal was 31200 fluorescence intensity (a.u.).

With “GGACGAAGAACGGGTCAACACCGCCACGTCAGCAAAACCGCGGAGTCACCTAGTGCAG”, the binding signal was 27700 fluorescence intensity (a.u.).

For the sequence “CCGTCACATAGCCACGATTACATGAGATTCTGCACAGTTACGGAGTCACCTAGTGCAG”, the binding signal was 3230 fluorescence intensity (a.u.).

Turning to “GGCAATGTACAATAACACCTGGCAATAACTCTTGCCAACACGGAGTCACCTAGTGCAG”, the binding signal was 3210 fluorescence intensity (a.u.).

Turning to “GATGGCGGTTTTGCTGATGTGGCGTTGACGTGCCGACCCGCGGAGTCACCTAGTGCAG”, the binding signal is 13200 fluorescence intensity (a.u.).

For the sequence “ATTACTATCTTTGAATGGGAACGAAGTTTCAATTATCACTCGGAGTCACCTAGTGCAG”, the binding signal was 10100 fluorescence intensity (a.u.).

In the case of “CATCCATCCGTCCGTGCCTCCGCGTTGCGCGTCCTTACCGCGGAGTCACCTAGTGCAG”, the binding signal is 3140 fluorescence intensity (a.u.).

“TTCAATAGGACACGGTGCTGATGACGTGGCGTGGCGGTGCCGGAGTCACCTAGTGCAG”: the binding signal was 38100 fluorescence intensity (a.u.).

Regarding “TTGCTATTCTCACCCATTACACTTGCTTATCCACAGTCATCGGAGTCACCTAGTGCAG”, the binding signal was 4380 fluorescence intensity (a.u.).

Turning to “TAGTACACCCGGCGACACATTTGATCCACACGTGTACGTACGGAGTCACCTAGTGCAG”, the binding signal is 6760 fluorescence intensity (a.u.).

In the case of “ACTAATGTACCATGACTGTTTCCTGCCAACACGAACACGTCGGAGTCACCTAGTGCAG”, the binding signal is 5290 fluorescence intensity (a.u.).

Take “GCTTTAAATCGTGTGCCGATTCGTGGAGACGGGTATGAGTCGGAGTCACCTAGTGCAG”: the binding signal was 4380 fluorescence intensity (a.u.).

Regarding “TGGCTCATGGAGAAAGAGGGGTGGTGGCGGTGCGTGGAGTCGGAGTCACCTAGTGCAG”, the binding signal was 3250 fluorescence intensity (a.u.).

Turning to “ACCCGCGGTGACGCGCTCCTTGACTCGGCGCCCCTGCTCGCGGAGTCACCTAGTGCAG”, the binding signal was 5940 fluorescence intensity (a.u.).

On to “AAACTTCTCTTCAGATAAAGATTTACTACCGTGTCAAATTCGGAGTCACCTAGTGCAG”, for which the binding signal is 3800 fluorescence intensity (a.u.).

With “CTCACACTTCACACGCCCCACTCAGCTCAGCTGCATGCTGCGGAGTCACCTAGTGCAG”, the binding signal was 3410 fluorescence intensity (a.u.).

“TTCCGCGCTGTAGCACGTGGAATAGCACTACCGTCAAAATCGGAGTCACCTAGTGCAG”: the binding signal was 3820 fluorescence intensity (a.u.).

“TTGATCAAATTGCCACGCAGACACCACGTCAGCCAAAACCCGGAGTCACCTAGTGCAG”: the binding signal was 21100 fluorescence intensity (a.u.).

Consider “AGTGCATTGGAGTGACACGTTTGAACTTTGAAGCATCATGCGGAGTCACCTAGTGCAG”, for which the binding signal is 3600 fluorescence intensity (a.u.).

Turning to “AGAGCAAAGGCCGGAGTCAGATGCGCGCGCGATTCCGTGACGGAGTCACCTAGTGCAG”, the binding signal is 18800 fluorescence intensity (a.u.).

For the sequence “CCACCTCCTCGCCGCCGCCGCCGGCCACCGCCGCCGCCGCCGGAGTCACCTAGTGCAG”, the binding signal is 3740 fluorescence intensity (a.u.).

In the case of “CTTATCAACTCCGGCCCTTGTGAGCTGGTCGACGCGTGGTCGGAGTCACCTAGTGCAG”, the binding signal was 3870 fluorescence intensity (a.u.).

On to “GCGACGCCACGCCACGCCACCACTCGCCGCAGCGCCGCGCCGGAGTCACCTAGTGCAG”, for which the binding signal is 6890 fluorescence intensity (a.u.).

Consider “ACCCTGCAGCGAGAGAGAGCCAGCCGCTCAGCTCAGCTCCCGGAGTCACCTAGTGCAG”, for which the binding signal is 12200 fluorescence intensity (a.u.).

In the case of “CGCCATAGTTAAGGGACGATGACGCAGCTTTTCTTGGAGTCGGAGTCACCTAGTGCAG”, the binding signal is 11000 fluorescence intensity (a.u.).

On to “TACTACAGACGATCAGAATATGAGTCAGTTGCATCCATAACGGAGTCACCTAGTGCAG”, for which the binding signal was 3390 fluorescence intensity (a.u.).

“TACTTGTAGACCTGAGCATATCCACGTCGATTTACTTCAACGGAGTCACCTAGTGCAG”: the binding signal is 5810 fluorescence intensity (a.u.).

On to “GCGAGTTCTTGGTCGATCGGTCTCCATTACTCTGCGTCAGCGGAGTCACCTAGTGCAG”, for which the binding signal was 4620 fluorescence intensity (a.u.).

Consider “CCCTTCCTCAGCATGGCTGCTTCTTATGTGGGCCTTCCGTCGGAGTCACCTAGTGCAG”, for which the binding signal was 3700 fluorescence intensity (a.u.).
